Experimental data: PubChem BioAssay AID493246 (Drosophila RNAi Screening Center, 2011)

- Purpose: 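Genes fly cells need to grow and stay alive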 (primary screen)
- System: Drosophila Kc and S2R+ cells
- Knock-down reagent: long dsRNA against Drosophila genes
- Measured: 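Cell number per well after knock-down, printed as raw plate values; calls were based on per-plate z-scores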
- Reading the numbers: Kc cell number and S2R+ cell number: higher = more cells remaining
- Hit rule: 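Counted as a hit if cell number falls by a z-score of at least 3 within its plate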
The screen tested about 21,000 reagents; shown is a random part of those with a known target gene and a result. Over the whole deposit, 429 (2%) got an active call. 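Values are raw and not normalised between plates; calls rest on per-plate z-scores that were not deposited.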 A plus sign joins genes that one reagent is predicted to hit. Not given: the amount of reagent, the time to read-out.

| predicted target | dsRNA | Kc cell number, rep 1 | Kc cell number, rep 2 | S2R+ cell number, rep 1 | S2R+ cell number, rep 2 | activity call |
| --- | --- | --- | --- | --- | --- | --- |
| CG8531 | DRSC07209 | 1.40e6 | 1.43e6 | 1.13e6 | 1.24e6 | inactive |
| CG8149 | DRSC16391 | 1.43e6 | 1.46e6 | 1.15e6 | 1.23e6 | inactive |
| Best4 (Bestrophin 4) | DRSC10792 | 1.58e6 | 1.73e6 | 1.38e6 | 1.45e6 | inactive |
| Ugt36D1 (UDP-glycosyltransferase family 36 member D1) | DRSC02600 | 1.45e6 | 1.54e6 | 1.31e6 | 1.22e6 | inactive |
| lectin-24A | DRSC00604 | 1.67e6 | 1.63e6 | 1.13e6 | 1.29e6 | inactive |
| Atg5 (Autophagy-related 5) | DRSC18112 | 6.46e5 | – | 9.38e5 | – | inactive |
| Vlet (Valette) | DRSC19845 | 5.15e5 | – | 7.99e5 | – | inactive |
| CG15432 | DRSC00447 | 1.49e6 | 1.48e6 | 1.06e6 | 1.24e6 | inactive |
| Mt2 (Methyltransferase 2) | DRSC03374 | 1.56e6 | 1.58e6 | 1.34e6 | 1.42e6 | inactive |
| RpL6 (Ribosomal protein L6) | DRSC14323 | 1.03e6 | 1.09e6 | 6.63e5 | 7.81e5 | active |
| maca | DRSC15738 | 1.48e6 | 1.49e6 | 8.63e5 | 1.00e6 | inactive |
| CG5281 | DRSC15761 | 1.36e6 | 1.38e6 | 1.16e6 | 1.22e6 | inactive |
| gom (gomdanji) | DRSC04690 | 1.59e6 | 1.72e6 | 1.41e6 | 5.58e5 | inactive |
| CG13204 | DRSC06328 | 1.47e6 | 1.55e6 | 1.15e6 | 1.29e6 | inactive |
| CG32365 | DRSC10040 | 1.44e6 | 1.37e6 | 1.28e6 | 1.26e6 | inactive |
| CG32365 | DRSC10041 | 2.15e5 | 2.43e5 | 4.58e5 | 5.88e5 | active |
| CG32365 | DRSC10977 | 1.25e6 | 1.21e6 | 5.74e5 | 6.99e5 | active |
| CG13364 | DRSC17898 | 1.58e6 | 1.58e6 | 9.95e5 | 1.12e6 | inactive |
| CG13364 | DRSC21263 | 1.72e6 | 1.77e6 | 1.06e6 | 1.21e6 | inactive |
| ND1 (retired record) | DRSC21273 | 1.62e6 | 1.65e6 | 1.11e6 | 1.29e6 | inactive |
| CG7484 | DRSC10853 | 1.35e6 | 1.38e6 | 1.22e6 | 1.37e6 | inactive |
| Patr-1 (Protein associated with topo II related - 1) | DRSC14159 | 1.35e6 | 1.44e6 | 1.01e6 | 1.07e6 | inactive |
| BckdhA (Branched chain keto acid dehydrogenase E1 subunit alpha) | DRSC16395 | 1.66e6 | 1.66e6 | 1.17e6 | 1.28e6 | inactive |
| Acer (Angiotensin-converting enzyme-related) | DRSC01852 | 1.43e6 | 1.27e6 | 1.08e6 | 1.04e6 | inactive |
| CG13124 | DRSC02220 | 1.27e6 | 1.30e6 | 1.08e6 | 1.20e6 | inactive |
| RpS7 (Ribosomal protein S7) | DRSC15394 | 9.31e5 | 9.89e5 | 7.32e5 | 8.35e5 | active |
| Cnep1r2 (CTD nuclear envelope phosphatase 1 regulatory subunit 2) | DRSC10950 | 1.56e6 | 1.52e6 | 1.26e6 | 1.18e6 | inactive |
| CG31635 | DRSC02273 | 1.76e6 | 1.81e6 | 1.36e6 | 1.49e6 | inactive |
| CG31635 | DRSC02274 | 1.63e6 | 1.85e6 | 1.01e6 | 1.18e6 | inactive |
| Snmp2 (Sensory neuron membrane protein 2) | DRSC10228 | 1.54e6 | 1.75e6 | 1.21e6 | 1.27e6 | inactive |
| Snmp2 (Sensory neuron membrane protein 2) | DRSC10843 | 1.47e6 | 1.53e6 | 1.12e6 | 1.19e6 | inactive |
| CG12316 | DRSC09879 | 1.53e6 | 1.54e6 | 1.31e6 | 1.32e6 | inactive |
| Phf7 (PHD finger protein 7) | DRSC20692 | 1.54e6 | 1.61e6 | 1.11e6 | 1.20e6 | inactive |

Continued; the last 6 above are carried over.
| predicted target | dsRNA | Kc cell number, rep 1 | Kc cell number, rep 2 | S2R+ cell number, rep 1 | S2R+ cell number, rep 2 | activity call |
| --- | --- | --- | --- | --- | --- | --- |
| CG31635 | DRSC02273 | 1.76e6 | 1.81e6 | 1.36e6 | 1.49e6 | inactive |
| CG31635 | DRSC02274 | 1.63e6 | 1.85e6 | 1.01e6 | 1.18e6 | inactive |
| Snmp2 (Sensory neuron membrane protein 2) | DRSC10228 | 1.54e6 | 1.75e6 | 1.21e6 | 1.27e6 | inactive |
| Snmp2 (Sensory neuron membrane protein 2) | DRSC10843 | 1.47e6 | 1.53e6 | 1.12e6 | 1.19e6 | inactive |
| CG12316 | DRSC09879 | 1.53e6 | 1.54e6 | 1.31e6 | 1.32e6 | inactive |
| Phf7 (PHD finger protein 7) | DRSC20692 | 1.54e6 | 1.61e6 | 1.11e6 | 1.20e6 | inactive |
| Pph13 (PvuII-PstI homology 13) | DRSC00775 | 1.40e6 | 1.37e6 | 8.73e5 | 9.68e5 | inactive |
| pgc (polar granule component) | DRSC04099 | 1.46e6 | 1.88e6 | 1.53e6 | 5.94e5 | inactive |
| Spt7 | DRSC19997 | 1.75e6 | 1.79e6 | 1.09e6 | 1.27e6 | inactive |
| CG8839 | DRSC07285 | 1.31e6 | 1.45e6 | 9.60e5 | 1.09e6 | inactive |
| Hsc70-4 (Heat shock protein 70 cognate 4) | DRSC16711 | 1.01e6 | 1.04e6 | 6.89e5 | 7.88e5 | inactive |
| Jasper (JIL-1 anchoring and stabilizing protein) | DRSC16352 | 5.35e5 | – | 8.48e5 | – | inactive |
| CG31525 | DRSC12004 | 1.38e6 | 1.49e6 | 1.12e6 | 1.27e6 | inactive |
| Syp (Syncrip) | DRSC13444 | 1.59e6 | 1.58e6 | 1.08e6 | 1.12e6 | inactive |
| Syp (Syncrip) | DRSC15286 | 1.47e6 | 1.51e6 | 1.13e6 | 1.22e6 | inactive |
| CG15036 | DRSC17968 | 1.35e6 | 1.44e6 | 9.54e5 | 1.08e6 | inactive |
| Nplp4 (Neuropeptide-like precursor 4) | DRSC00391 | 1.67e6 | 1.74e6 | 1.09e6 | 1.20e6 | inactive |
| Dif (Dorsal-related immunity factor) | DRSC03316 | 1.49e6 | 1.57e6 | 1.20e6 | 1.33e6 | inactive |
| CG17777 | DRSC18137 | 1.60e6 | 1.61e6 | 1.08e6 | 1.23e6 | inactive |
| Cda9 (Chitin deacetylase-like 9) | DRSC06593 | 1.47e6 | 1.55e6 | 1.19e6 | 1.28e6 | inactive |
| mre11 (meiotic recombination 11) | DRSC03570 | 1.55e6 | 1.65e6 | 1.14e6 | 1.21e6 | inactive |
| CG31953 (retired record) + gkt | DRSC00709 | 1.32e6 | 1.33e6 | 9.58e5 | 1.09e6 | inactive |
| Ktch (Ketchup) | DRSC15094 | 1.55e6 | 1.59e6 | 1.09e6 | 1.22e6 | inactive |
| Galphao (G protein alpha subunit o) | DRSC07430 | 1.50e6 | 1.56e6 | 1.22e6 | 1.23e6 | inactive |
| Gr58b (Gustatory receptor 58b) | DRSC04140 | 1.48e6 | 1.57e6 | 1.30e6 | 4.49e5 | inactive |
| Ing5 (Inhibitor of growth family member 5) | DRSC03188 | 1.20e6 | 1.25e6 | 1.14e6 | 1.17e6 | inactive |
| Zip42C.2 (Zinc/iron regulated transporter-related protein 42C.2) | DRSC05004 | 1.73e6 | 1.66e6 | 1.40e6 | 1.33e6 | inactive |
| CG4239 | DRSC19885 | 6.54e5 | – | 9.54e5 | – | inactive |
| CG33278 | DRSC10336 | 1.69e6 | 1.65e6 | 1.20e6 | 1.18e6 | inactive |
| CG13038 | DRSC09919 | 1.79e6 | 1.87e6 | 1.21e6 | 1.39e6 | inactive |
| Irk2 (Inwardly rectifying potassium channel 2) | DRSC15569 | 1.56e6 | 1.67e6 | 1.21e6 | 1.37e6 | inactive |
| Ir56a (Ionotropic receptor 56a) | DRSC05776 | 6.02e5 | – | 9.26e5 | – | inactive |
